# Marks after values point to notes of the source that are not given here.
# Assay: Fluorescence comparison of phosphorylated and unphosphorylated peptides in assay mixture without enzyme
# Assay type: physicochemical
# Conditions: phosphorylated vs unphosphorylated peptide, excitation 360 nm, emission 485 nm
# [1] = calculated from single peptide solutions (10 μM)
substance,measurement,setting,value
"Ac-Leu-Arg-Arg-Ala-Ser-Leu-Pro-Sox-NH2 (LRRASLP; Ac; Sox; C-terminal amide; Cyclic-AMP dependent kinase (PKA) substrate containing metal binding amino acid (Sox)) [Ac-LRRAS*LP-Sox-NH2, Sox-containing peptide substrate (sensor) for PKA]",Fluorescence Increase,calculated from slope (units/μM) of product and substrate concentration versus fluorescence intensity,300%^e
Ac-Sox-Pro-Gly-Ile-Tyr-Ala-Ala-Pro-Phe-Ala-Lys-Lys-Lys-NH2 (PGIYAAPFAKKK; Ac; Sox; C-terminal amide; Abelson kinase (Abl) substrate containing the metal binding amino acid (Sox)) [Sox-containing peptide substrate (sensor) for Abl],Fluorescence Increase,[1],400%^g
"Ac-Sox-Pro-Gly-Thr-Phe-Arg-Arg-Arg-NH2 (PGTFRRR; Ac; Sox; C-terminal amide; Protein kinase C substrate containing the metal binding amino acid (Sox)) [Ac-Sox-PGT*FRRR-NH2, Sox-containing peptide substrate (sensor) for PKC, threonine phosphorylation site]",Fluorescence Increase,[1],280%^g
